In PubChem BioAssay AID2685 (National Center for Advancing Translational Sciences (NCATS), 2010) one finds cell number change and AC50 data, which are given here for 59 compounds.

Structures are written as SMILES. This is one part of the list. Further columns of the screen follow, without active or inactive calls. Compounds called inactive in the main read-out are mostly missing here. The note in brackets gives the kind of curve behind each potency; many fits are weak.

The nature of the experiment: qHTS Assay for Lipid Storage Modulators in Drosophila S3 Cells.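 As to cell number change: cells counted by Cell Tracker Red CMTPX staining in the red channel.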 The conditions noted are these: BODIPY lipid droplet fluorescence, 18-24 h; for cell number change: measured here: cell count max response, cells fed with added oleic acid. In short, it runs like this:
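Laser-scanning cytometry quantifies lipid droplet accumulation (500–530 nm total intensity; droplet/cell object ratio) in oleic acid-fed (400 uM added) Drosophila S3 cells treated with a concentration series. 20 uM Triacsin C defined 100% inhibition.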
(In qHTS, concentration-response curves come from the screen itself.)

Where [1] appears, read: measured here: lipid fluorescence (Fed channel) AC50, cells fed with added oleic acid.
The mark [2] stands for this setting: measured here: cell number channel AC50, cells fed with added oleic acid.

The term AC50 denotes the concentration giving half of the maximal activity seen. For `CCOCC(=O)N1CCN(Cc2ccc3c(c2)OCO3)CC1`, the cell number change was determined as 0.275%. Also, the AC50 under setting [1] was 29.1 µM [rising, single point].
`COc1ccc(OCC(=O)Nn2c(-c3ccc(C)cc3)nc3ccccc3c2=O)cc1`: the cell number change stood at 0.37%. Moreover, under setting [1], the concentration at half-maximal activity (AC50) is 2.59 µM [falling, partial curve].
For the compound `Cn1c(=O)oc2cc(S(=O)(=O)N3CCCC(C(=O)NCc4ccc5c(c4)OCO5)C3)ccc21` (stereo not given), the cell number change came to 37%. Moreover, under setting [2], the concentration at half-maximal activity (AC50) was 11.6 µM [rising, single point].
For the compound `COc1ccc(C(=S)N2CCN(c3cccc(Cl)c3)CC2)c(OC)c1`, the cell number change was found to be 50.2%. The concentration at half-maximal activity (AC50) under setting [2] was 5.8 µM [rising, full curve, poor fit]. Also, under setting [1], the AC50 is 6.51 µM [rising, single point].
Consider `O=S(=O)(Nc1nc2ccc(S(=O)(=O)N3CCCC3)cc2s1)c1ccc(F)cc1`, for which the cell number change came to 6.75%. The half-maximal activity concentration (AC50) under setting [1] was 1.84 µM [falling, partial curve].
Take `COc1ccc(NC(=S)NC(NC(=O)c2cccc3ccccc23)C(Cl)(Cl)Cl)c([N+](=O)[O-])c1` (stereo not given): the cell number change amounted to 64.8%. In addition, under setting [2], the AC50 was 4.11 µM [rising, full curve].
As for `O=C(NCCNC(=O)c1ccccc1Cl)c1ccco1`, the cell number change was determined as 8.11%.
As to `O=C(CN1C(=O)NC2(CCCC2)C1=O)N1CCCSC1=Nc1ccccc1`, the cell number change is -8.96%. Further, the AC50 under setting [1] is 0.146 µM [rising, full curve].
For `Cc1cc(S(=O)(=O)Nc2ccccc2C(=O)O)ccc1Cl`, the cell number change stood at 10.3%. Moreover, under setting [1], the AC50 was 3.66 µM [rising, single point].
For the compound `CCC(C)c1ccccc1NC(=O)C(C)N(C)Cc1cccc(OC)c1` (stereo not given), the cell number change is 22.7%.
Regarding `COc1ccccc1/C=C/C(=O)NCC(=O)N/N=C/c1cccnc1`, the cell number change is -38.1%. In addition, the AC50 under setting [2] was 7.31 µM [falling, partial curve, poor fit].
With `CCCCOC(=O)Nc1nnc(CCOCC)s1`, the cell number change came out at 8.93%. The AC50 under setting [1] was 0.82 µM [falling, full curve, poor fit].
With `O=C(c1ccc([N+](=O)[O-])cc1)N(Cc1ccc(Cl)cc1Cl)N1C(=O)CCCC1=O`, the cell number change was 11.8%.
The same measure, in the same setting: the same measure for `COc1ccc(Cn2c(=O)[nH]c3cc(C(=O)NCCc4ccc(S(N)(=O)=O)cc4)ccc3c2=O)cc1`: -38.2%.
`CCO[C@@H]1OC(C(=O)NCc2nc3ccccc3[nH]2)=C[C@H](C2CCCCC2)[C@H]1CCCO`: the cell number change is -42.9%. Further, the AC50 under setting [2] was 14.6 µM [falling, partial curve]. In addition, the half-maximal activity concentration (AC50) under setting [1] is 14.6 µM [falling, partial curve].
For the compound `CCC(C)c1ccc(OCC(=O)Nc2ccc(Cl)cn2)cc1` (stereo not given), the cell number change is -53.8%. For the same compound, the AC50 under setting [2] is 13 µM [falling, partial curve].
Consider `O=C(c1cnn(C(=O)c2cccc(S(=O)(=O)N3CCOCC3)c2)c1)c1ccccc1O`, for which the cell number change is 62%. For the same compound, under setting [1], the half-maximal activity concentration (AC50) was 6.51 µM [falling, single point].
With `CCOc1ccc(-c2csc(/C(C#N)=C\c3ccc(O)c([N+](=O)[O-])c3)n2)cc1`, the cell number change is -55.1%. The half-maximal activity concentration (AC50) under setting [2] was 32.6 µM [falling, single point]. The half-maximal activity concentration (AC50) under setting [1] was 25.9 µM [falling, partial curve, poor fit].
As to `On1c(-c2ccccc2)nc2ccc(Cl)cc21`, the cell number change is -24.3%.
Regarding `CCCCn1c(N)c(N(CCOC)C(=O)CN(C)S(=O)(=O)c2ccc(Cl)cc2)c(=O)[nH]c1=O`, the cell number change is 9.73%. For the same compound, the concentration at half-maximal activity (AC50) under setting [1] was 2.06 µM [falling, partial curve].
For `CCn1c2ccccc2c2cc(NC(=O)CNCc3ccccc3OC)ccc21`, the cell number change is -21.9%. Under setting [1], the half-maximal activity concentration (AC50) was 0.206 µM [rising, single point].
Turning to `CCC1(O)c2ccccc2-c2ncccc21` (stereo not given), the cell number change was determined as 137%. Moreover, under setting [2], the AC50 is 29.1 µM [rising, single point].
For `COc1ccc(C2CC(c3ccccc3)=NN2C(=S)Nc2ccccc2)cc1` (stereo not given), the cell number change turned out to be 15.5%. Also, the AC50 under setting [1] is 10.3 µM [falling, partial curve, poor fit].
Take `CC(Sc1ccccc1)C(=O)Nc1cccc(N(C)S(C)(=O)=O)c1` (stereo not given): the cell number change came to 35.1%. Also, under setting [2], the AC50 is 0.259 µM [rising, full curve, poor fit]. Also, the AC50 under setting [1] is 32.6 µM [rising, single point].
With `CCCn1c(SCC(=O)Nc2ccc(NC(=O)CC)cc2)nc2c1c(=O)n(C)c(=O)n2C`, the cell number change stood at 15.7%. The AC50 under setting [2] is 6.51 µM [rising, single point].
Turning to `COC(=O)c1ccccc1C(=O)N1CCCC(C(=O)c2ccc(OC)c(OC)c2)C1` (stereo not given), the cell number change is -36.8%. The concentration at half-maximal activity (AC50) under setting [2] was 25.9 µM [falling, partial curve]. Under setting [1], the AC50 was 18.4 µM [falling, partial curve, poor fit].
With `Cc1cc(=O)[nH]c(SCCCOc2ccc(F)cc2)n1`, the AC50 is, setting by setting: under setting [2], 0.103 µM [falling, full curve]; under setting [1], 1.16 µM [falling, full curve].
On to `Cc1ccccc1NC1=C/C(=N\S(=O)(=O)c2cccs2)c2ccccc2C1=O`, for which the cell number change is -88.7%. Under setting [2], the AC50 is 10.3 µM [falling, partial curve]. Further, the concentration at half-maximal activity (AC50) under setting [1] was 16.4 µM [falling, partial curve].
On to `COCCN(C(=O)Cn1nnc2ccccc21)C(C(=O)NC1CCCC1)c1ccc(OC)cc1OC` (stereo not given), for which the cell number change was -16.3%. Besides, the concentration at half-maximal activity (AC50) under setting [1] is 29.1 µM [falling, single point].
Consider `CC1CCN(CCCNS(=O)(=O)c2ccc3c(c2)CCN3C(=O)C2CC2)CC1`, for which the half-maximal activity concentration (AC50) under setting [2] was 1.64 µM [rising, partial curve, poor fit].
On to `CCOP(=O)(c1ccc(N(C)C)cc1)C(O)c1ccc(Cl)cc1` (stereo not given), for which the cell number change was -23.8%. In addition, the AC50 under setting [2] is 3.66 µM [falling, full curve, poor fit]. Further, the AC50 under setting [1] is 6.51 µM [falling, single point].
For the compound `COc1cccc(-c2nc3sc4c(c3c(=O)[nH]2)CCCCC4)c1`, the cell number change was found to be 3.69%. Under setting [1], the AC50 was 6.51 µM [falling, full curve].
As for `Cc1ccc(NC(=S)NC2CCCC2)c(C)c1`, the cell number change stood at 23.6%.
For `Cn1c2ccc(F)cc2c2nnc(SCCN3CCCCC3)nc21`, the cell number change is -23.6%. For the same compound, the AC50 under setting [1] is 0.731 µM [falling, partial curve, poor fit].
Consider `CC(C)N=C(NC#N)SCc1ccccc1`, for which the cell number change was -6%.
With `Cc1ccc(-c2noc(CCC(=O)NCc3ccccc3CN3CCOCC3)n2)cc1`, the cell number change was -17.9%. The AC50 under setting [1] was 1.46 µM [rising, partial curve].
For `CC(/C=N\N1CCN(c2ccc(Cl)cc2)CC1)=C\c1ccccc1`, the AC50 under setting [2] is 1.84 µM [falling, partial curve, poor fit].
Consider `CCOc1ccc(NC(=O)CSc2nc3ccccc3nc2N2CC(C)OC(C)C2)cc1` (stereo not given), for which the cell number change was -29.1%. Also, under setting [1], the AC50 was 29.1 µM [falling, partial curve, poor fit].
For `COc1ccc(OC)c(CNn2c(-c3cccc(C)c3)nc3ccccc3c2=O)c1`, the AC50 under setting [1] was 0.58 µM [rising, single point].
For the compound `O=C(C1=C(O)C(=O)N(Cc2ccccc2)C1c1ccncc1)c1ccco1` (stereo not given), the cell number change was 1.32%. Under setting [1], the AC50 is 1.03 µM [falling, full curve, poor fit].
Turning to `Cc1ccc(NC2=NCC(=O)N2C2CCCC2)cc1`, the cell number change was 16.2%. Besides, the AC50 under setting [2] is 6.51 µM [falling, single point]. For the same compound, the AC50 under setting [1] is 1.84 µM [falling, partial curve, poor fit].
Turning to `CC(C)CNS(=O)(=O)c1ccc(CCC(=O)Nc2ccc3c(c2)OCO3)cc1`, the cell number change amounted to 10.9%. Besides, the AC50 under setting [1] was 2.59 µM [rising, partial curve, poor fit].
Consider `COc1cccc(N2CCN(C(=O)CCCCCNc3nc(=S)[nH]c4ccccc34)CC2)c1`, for which the cell number change is -8.21%.
`CC(Oc1ccc(Cl)cc1)C(=O)Nc1ccc(S(=O)(=O)Nc2nccs2)cc1` (stereo not given): the cell number change was 6.09%. In addition, under setting [1], the AC50 is 29.1 µM [falling, partial curve].
With `O=C(Cn1c(=O)cnc2ccccc21)Nc1cccc(S(=O)(=O)N2CCOCC2)c1`, the cell number change was 32.7%. The AC50 under setting [2] was 10.3 µM [rising, single point].
As for `COc1cccc(/C=C/C(=O)NCCc2ccc(OC)c(OC)c2)c1`, the cell number change is -37.3%. Under setting [2], the AC50 was 11.6 µM [falling, single point].
`c1ccc2c3c([nH]c2c1)CCNC3`: the cell number change was found to be 15.3%.
In the case of `O=C(c1ccc2c(c1)OCO2)N(c1ccccc1)C1C=CS(=O)(=O)C1` (stereo not given), the cell number change came to 6.9%. Also, the AC50 under setting [1] is 2.59 µM [rising, single point].
Turning to `O=C(Cc1ccccc1F)NC1CCSc2ccccc21` (stereo not given), the cell number change worked out at 35.3%. Also, under setting [1], the half-maximal activity concentration (AC50) is 29.1 µM [rising, single point].
With `Cc1ccc(C(=O)NC(=S)N2CCN(C)CC2)cc1`, the cell number change was -24.6%. In addition, the AC50 under setting [2] is 0.13 µM [falling, full curve, poor fit]. Moreover, under setting [1], the AC50 is 0.82 µM [falling, full curve].
For `CN(C(=O)C(C)(C)C)c1ccc(OCC(=O)N2CCc3ccccc3C2)cc1`, the cell number change came to 8.97%.
On to `Cc1cc(NC(=O)CSc2nnnn2C)n(-c2ccccc2)n1`, for which the cell number change turned out to be 37.9%. The AC50 under setting [2] was 9.2 µM [rising, partial curve]. Also, the concentration at half-maximal activity (AC50) under setting [1] was 13 µM [rising, partial curve].
For `O=C(CSc1nnc(COc2ccc(Cl)cc2Cl)o1)Nc1ccccn1`, the cell number change turned out to be 22.2%. Further, under setting [1], the AC50 was 29.1 µM [rising, single point].
Turning to `NS(=O)(=O)c1ccc(NC2=CC(=O)C(=O)c3ccccc32)cc1`, the cell number change was -41.4%. The half-maximal activity concentration (AC50) under setting [2] is 18.4 µM [falling, partial curve].
As to `COP(=O)(CC(=O)c1ccccc1)CC(=O)c1ccccc1`, the cell number change is -42.3%. The AC50 under setting [1] is 29.1 µM [falling, single point].
Consider `CCOc1ccc(NC(=S)NNC(=S)Nc2cccc(C(F)(F)F)c2)cc1`, for which the cell number change is -36.9%. The concentration at half-maximal activity (AC50) under setting [2] is 23.1 µM [falling, single point]. Under setting [1], the AC50 was 23.1 µM [falling, single point].
As for `Cc1ccc(CN2CC(C(=O)Nc3ccccc3N3CCCC3)CC2=O)cc1` (stereo not given), the cell number change was 63.9%. For the same compound, the AC50 under setting [2] is 23.1 µM [rising, partial curve].
For `CCOC(=O)CC1C(=O)NCCN1C(=O)c1cccc(C(F)(F)F)c1` (stereo not given), the cell number change came out at 0.595%. In addition, under setting [1], the AC50 was 23.1 µM [falling, single point].
Consider `O=[N+]([O-])c1ccc(Cl)c(NC(=S)N2CCCC2)c1`, for which the cell number change turned out to be 24.6%.
